The values that follow come from patent US5480870A (Biosignal Kutato-Fejlesztokft, priority 1991, dated 1996).

The nature of data set [1]: general procedure: Boc solid-phase peptide synthesis; benzhydrylamine or chloromethylated polystyrene resin; symmetric anhydride or active ester coupling, or DCC, DIC or BOP. To be noted: whole synthesis.
The nature of data set [2]: Fmoc solid-phase peptide synthesis; benzhydrylamine or chloromethylated polystyrene resin; symmetric anhydride or active ester coupling, or DCC, DIC or BOP. To be noted: whole synthesis, scale 0.25 mmol.
[3] abbreviates: scale of the general procedure 0.25 mmol.
[4] abbreviates: scale 0.27 mmol, one disulfide bridge, sequence written open.

In data set [1], “Ac-Sar-Ala-Tyr-Tyr-Aa-Lys-Val-Phe-Trp-NH2” yielded an isolated mass of 85 mg. Further, the isolated yield in data set [1] (setting [3]) stood at 28%.

Turning to D-Phe-Cys-Tyr-D-Trp-Lys-Val-Cys-Thr-NH2, in data set [1] (setting [4]), the isolated mass amounted to 54 mg and the isolated yield is 19.4%.

In data set [1] (scale 0.25 mmol), “β-Asp(indolinyl)-Cys(4-Me-Bzl)-Tyr(2-Br-Z)-D-Trp-Lys(Z)-Val-Cys(4-Me- Bzl)-Thr(Bzl)” yielded an isolated mass of 120 mg and an isolated yield of 43%.

In turn, Pop-Tyr-Tyr-Aa-Lys-Val-Phe-Trp-NH2 registered an isolated mass in data set [1] of 105 mg. This substance came in with an isolated yield in data set [1] (setting [3]) of 35%.

For “Aa-Cys(Acm)-Tyr(tBu)-D-Trp-Lys(Boc)-Val-Cys(Acm)-Trp”, in data set [2], the isolated mass was determined as 147 mg and the isolated yield amounted to 46%.
